This passage reports binding results from article PMC10367558.

Amino acid sequences for entries named in this document (tags omitted).
UniProt P40763: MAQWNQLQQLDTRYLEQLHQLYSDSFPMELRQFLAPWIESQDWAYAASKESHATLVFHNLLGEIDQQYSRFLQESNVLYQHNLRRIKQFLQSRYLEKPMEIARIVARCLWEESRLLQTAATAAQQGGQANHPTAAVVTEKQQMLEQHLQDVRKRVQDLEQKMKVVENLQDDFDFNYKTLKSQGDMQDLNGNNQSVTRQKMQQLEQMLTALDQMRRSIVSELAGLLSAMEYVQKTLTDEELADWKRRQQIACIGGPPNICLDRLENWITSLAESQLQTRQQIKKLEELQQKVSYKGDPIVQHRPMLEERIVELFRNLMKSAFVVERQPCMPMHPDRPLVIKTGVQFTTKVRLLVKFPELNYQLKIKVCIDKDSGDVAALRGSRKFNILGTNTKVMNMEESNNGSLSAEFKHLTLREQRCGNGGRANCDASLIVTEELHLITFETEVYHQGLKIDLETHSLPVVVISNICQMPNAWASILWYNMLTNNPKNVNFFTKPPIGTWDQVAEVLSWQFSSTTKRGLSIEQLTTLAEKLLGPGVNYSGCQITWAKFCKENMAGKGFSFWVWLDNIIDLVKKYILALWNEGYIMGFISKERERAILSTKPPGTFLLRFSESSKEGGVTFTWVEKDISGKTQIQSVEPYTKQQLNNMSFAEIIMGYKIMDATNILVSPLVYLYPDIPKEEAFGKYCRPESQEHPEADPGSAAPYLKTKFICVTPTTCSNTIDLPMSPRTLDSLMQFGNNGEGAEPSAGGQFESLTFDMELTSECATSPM

Results are given in words; binding and its absence hold for the method and conditions named. Binding seen in cells or lysates may run through a third protein. Some results given as binding are weak or reduced against the parent protein; the word gives no strength.

Assay [1] addresses HA-tagged STAT3 (UniProt P40763). Briefly: co-IP; HEK293T cells transfected with the indicated expressing plasmids (Flag-DBF4, STAT3, CDC7 wild type or D196N); precipitating antibody not told.
Assay [2] concerns the target Signal transducer and activator of transcription 3 (STAT3) (human (endogenous in HCCLM3 and MHCC97H)) (UniProt P40763). Briefly: co-IP; endogenous proteins from whole cell lysates of HCC cells (HCCLM3, MHCC97H); Dynabeads Co-Immunoprecipitation Kit, antibody or IgG on beads, lysate incubated at 4°C for 30 minutes; also in cells with DBF4 depletion, or treated with TNF-α and selinexor.

Assay [3] shares this target. Briefly: co-IP; endogenous proteins; cytoplasmic and nuclear fractions of MHCC97H cells transfected with siRNAs targeting XPO1 were separated and immunoprecipitated.

B1: CDC7^D196N (enzyme, UniProt O00311 1-574)
chain: MEASLGIQMDEPMAFSPQRDRFQAEGSLKKNEQNFKLAGVKKDIEKLYEAVPQLSNVFKIEDKIGEGTFSSVYLATAQLQVGPEEKIALKHLIPTSHPIRIAAELQCLTVAGGQDNVMGVKYCFRKNDHVVIAMPYLEHESFLDILNSLSFQEVREYMLNLFKALKRIHQFGIVHRDVKPSNFLYNRRLKKYALVNFGLAQGTHDTKIELLKFVQSEAQQERCSQNKSHIITGNKIPLSGPVPKELDQQSTTKASVKRPYTNAQIQIKQGKDGKEGSVGLSVQRSVFGERNFNIHSSISHESPAVKLMKQSKTVDVLSRKLATKKKAISTKVMNSAVMRKTASSCPASLTCDCYATDKVCSICLSRRQQVAPRAGTPGFRAPEVLTKCPNQTTAIDMWSAGVIFLSLLSGRYPFYKASDDLTALAQIMTIRGSRETIQAAKTFGKSILCSKEVPAQDLRKLCERLRGMDSSTPKLTSDIQGHASHQPAISEKTDHKASCLVQTPPGQYSGNSFKKGDSNSCEHCFDEYNTNLEGWNEVPDEAYDLLDKLLDLNPASRITAEEALLHPFFKDMSL
In the case of B1, the binding entry in assay [1] is recorded as “no binding”.

B2: Dumbbell former 4 (DBF4) (protein, UniProt Q9UBU7 1-674)
chain: MNSGAMRIHSKGHFQGGIQVKNEKNRPSLKSLKTDNRPEKSKCKPLWGKVFYLDLPSVTISEKLQKDIKDLGGRVEEFLSKDISYLISNKKEAKFAQTLGRISPVPSPESAYTAETTSPHPSHDGSSFKSPDTVCLSRGKLLVEKAIKDHDFIPSNSILSNALSWGVKILHIDDIRYYIEQKKKELYLLKKSSTSVRDGGKRVGSGAQKTRTGRLKKPFVKVEDMSQLYRPFYLQLTNMPFINYSIQKPCSPFDVDKPSSMQKQTQVKLRIQTDGDKYGGTSIQLQLKEKKKKGYCECCLQKYEDLETHLLSEQHRNFAQSNQYQVVDDIVSKLVFDFVEYEKDTPKKKRIKYSVGSLSPVSASVLKKTEQKEKVELQHISQKDCQEDDTTVKEQNFLYKETQETEKKLLFISEPIPHPSNELRGLNEKMSNKCSMLSTAEDDIRQNFTQLPLHKNKQECILDISEHTLSENDLEELRVDHYKCNIQASVHVSDFSTDNSGSQPKQKSDTVLFPAKDLKEKDLHSIFTHDSGLITINSSQEHLTVQAKAPFHTPPEEPNECDFKNMDSLPSGKIHRKVKIILGRNRKENLEPNAEFDKRTEFITQEENRICSSPVQSLLDLFQTSEEKSEFLGFTSYTEKSGICNVLDIWEEENSDNLLTAFFSSPSTSTFTGF
Turning to B2, the binding entry in assay [2] and in assay [3] was “binds” throughout.
